# Data from PubChem BioAssay AID1259354 (Paczesny and Yang Labs, IUPUI and University of Michigan, 2018).
# Amino acid sequences for entries named in this document (tags omitted). A change or cut given only in a name is not applied to a line headed by its entry.
# UniProt Q01638: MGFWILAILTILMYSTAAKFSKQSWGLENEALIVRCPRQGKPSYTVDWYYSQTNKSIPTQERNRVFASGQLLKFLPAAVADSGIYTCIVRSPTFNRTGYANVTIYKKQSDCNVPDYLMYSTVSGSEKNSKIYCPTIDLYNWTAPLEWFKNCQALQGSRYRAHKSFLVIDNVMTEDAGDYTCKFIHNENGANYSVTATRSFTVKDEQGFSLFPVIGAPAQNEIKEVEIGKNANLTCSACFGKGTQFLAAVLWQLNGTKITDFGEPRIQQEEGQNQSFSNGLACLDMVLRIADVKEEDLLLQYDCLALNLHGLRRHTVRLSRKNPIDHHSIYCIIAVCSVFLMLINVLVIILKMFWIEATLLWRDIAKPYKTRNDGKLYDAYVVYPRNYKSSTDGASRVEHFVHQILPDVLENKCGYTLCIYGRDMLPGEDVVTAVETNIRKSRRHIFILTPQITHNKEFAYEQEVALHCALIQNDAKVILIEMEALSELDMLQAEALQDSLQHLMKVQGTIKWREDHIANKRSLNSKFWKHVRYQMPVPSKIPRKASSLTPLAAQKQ
# The whole screen tested about 78,000 compounds, of which about 1,800 (2.3%) were called active. This list was built around the results that the source calls inconclusive (neither active nor inactive); the mix of calls is not that of the screen. Rule as the data show it: active = inhibition above about 30%; inconclusive = mostly about 10% to 28%; inactive = weaker than that.
# Target: Interleukin-1 receptor-like 1 (Homo sapiens) (UniProt Q01638)
# Assay: blocks human ST2 binding to IL-33, primary screen, biochemical, AlphaLISA (AID 1259354)
# Conditions: AlphaLISA ST2-Fc/biotin-IL-33 interaction, 1 h; at 17 µM, active compounds read high
row,Compound,inhibition
1,COc1ccc(C(=O)N[C@H]2CO[C@H]3[C@@H]2OC[C@@H]3n2cc(CC3CCCCC3)nn2)cc1,inconclusive: 12%
2,Cc1ccc(NC(=O)CNCc2cc(CC(C)C)on2)c(C)c1,inconclusive: 17%
3,O=C(CCCn1cnc([N+](=O)[O-])n1)Nc1ccc(Cl)c(Cl)c1,inconclusive: 14%
4,O=C(CSc1oc(-c2ccccc2)nc1S(=O)(=O)c1ccccc1)NC1CCCCC1,inconclusive: 11%
5,COC1(C#CC(=O)c2ccc([N+](=O)[O-])cc2)CCCCC1,active: 61%
6,NC(=O)c1cccc(CC2CCN(C(=O)Cc3cccnc3)C2)c1 (centres undefined),inconclusive: 14%
7,c1ccc(CCN2CCCC(Cn3cnnc3)C2)cc1 (centres undefined),inactive
8,COc1ccc(NCc2ccncc2)cc1,inactive
9,Cc1occc1C(=O)NCc1cccnc1N(C)C,inactive
10,CC(=O)Nc1ccc(S(=O)(=O)Nc2ccc3n(c2=O)C[C@H]2C[C@@H]3CN(C(=O)c3ccccc3)C2)cc1,inactive
11,CC(C)CN(CC(C)C)S(=O)(=O)c1ccc(C(=O)Nc2sc3c(c2C#N)CCC3)cc1,inactive
12,COC(=O)C1=C(C)Nc2nnnn2C1c1cccc(Br)c1 (centres undefined),inactive
13,CC(C)N1CCc2c(sc(NC(=O)CN3C(=O)CCC3=O)c2-c2nc3ccccc3s2)C1,inconclusive: 10%
14,C=CCNC(=O)c1cc2c(=O)n3cccc(C)c3nc2n(CCCn2ccnc2)c1=N,active: 31%
15,CC1=CC[C@@H]2CN(C(=O)CCN3Cc4ccccc4C3=O)C[C@@H]2C1,inconclusive: 15%
16,Cc1ccc(C2CC(c3cccs3)n3nc(N)nc3N2)cc1 (centres undefined),inconclusive: 15%
17,CN(C)c1ccc(NC(=O)N2CCOC(c3ccc(Cl)cc3)C2)cc1 (centres undefined),inconclusive: 18%
18,Cc1cc(-n2cnnc2C2CCOCC2)n(C)n1,inactive
19,COc1ccccc1C1C2=C(CCCC2=O)Nc2nc(SCc3ccccc3F)[nH]c(=O)c21 (centres undefined),inconclusive: 12%
20,CC1=CC(=O)C=C/C1=N/OC(=O)c1cccc([N+](=O)[O-])c1Br,inconclusive: 12%
21,Cc1ccc(Cn2c(CNC(=O)COc3ccccc3)nc3cccnc32)cc1,inconclusive: 14%
22,COc1cc2c(cc1OC)CN(Cc1ccc(Cl)c(Cl)c1)CC2,inactive
23,Cc1ccc(N2C(=O)C3C4C=CC(CO)(O4)C3C2=O)cc1Br (centres undefined),inconclusive: 16%
24,Cc1ccc([N+](=O)[O-])cc1N=Cc1c(C)cc(O)cc1O,inconclusive: 14%

row,Compound,inhibition
1,O=C(C1CC2CCC1C2)N1CCN(c2ccc(Cl)cc2)CC1 (centres undefined),inconclusive: 14%
2,O=C(Nc1cccc(C(F)(F)F)c1)N[C@H]1CO[C@H]2[C@@H]1OC[C@H]2OC(=O)Nc1ccc(Oc2ccccc2)cc1,active: 31%
3,Cc1ccc(C2CC(=O)Nc3n[nH]c(C)c32)cc1 (centres undefined),inactive
4,Cc1cccn2c(CC(=O)NCc3cc(-c4ccco4)on3)cnc12,inconclusive: 13%
5,O=C(O)COCC(=O)N1Cc2[nH]cnc2C[C@H]1c1nc(Cc2ccccc2)no1,inconclusive: 13%
6,O=C(Nc1ccc2c(c1)Cc1ccccc1-2)c1ccncc1,inconclusive: 13%
7,COc1ccc(-c2ccnc(N[C@H]3CO[C@H]4[C@@H]3OC[C@@H]4NS(=O)(=O)c3ccc4ccccc4c3)n2)cc1,inconclusive: 12%
8,CCOC(=O)N1CCC(NC2CCN(c3cccc(NC(=O)CC4CCCC4)c3)CC2)CC1,inconclusive: 13%
9,Cc1ccc(CN(c2ccc(C(=O)NCc3ccncc3)cc2)S(C)(=O)=O)cc1,inconclusive: 13%
10,COc1ccc2nc(NC(=O)CSc3cc(=O)n(C)c4ccccc34)sc2c1,inactive
11,COc1ccc(S(=O)(=O)NCCSCc2ccco2)cc1Br,inconclusive: 18%
12,COc1ccc(NC2(C(=O)N3[C@@H]4CC[C@H]3CNC(=O)C4)CCCC2)cc1,inactive
13,Cc1ccc2oc([C@H]3CCN(Cc4ncc[nH]4)C3)nc2c1,inconclusive: 12%
14,N#CC1=C(N)Oc2cc(N)ccc2C1c1ccc(Cl)cc1Cl (centres undefined),inactive
15,N#Cc1cccn1Cc1ccccc1Br,inconclusive: 15%
16,CC(C)(C)C(=O)Nc1cc(NC(=O)C(C)(C)C)cc([N+](=O)[O-])c1,inconclusive: 15%
17,COCCn1c(CCCC(=O)NCc2ccc3c(c2)OCO3)nc2cccnc21,inconclusive: 13%
18,CCCOc1ccc(C(=O)Nc2cc(Cl)ccc2Cl)cc1,inactive
19,Cc1nn(-c2ccccc2)c2c1C(c1ccc(F)cc1)C(C#N)=C(N)O2 (centres undefined),inconclusive: 26%
20,Cc1cc(C(=O)Nc2cccc3nsnc23)ccc1[N+](=O)[O-],inconclusive: 17%
21,OC[C@@H]1O[C@H](CNC2CCOCC2)[C@H](N2CCOCC2)[C@@H]1O,inconclusive: 16%
22,COc1cccc(CN2CCSCC2)c1OC,inconclusive: 11%
23,Cn1c(=O)oc2cc(S(=O)(=O)Nc3cccc(F)c3)ccc21,inactive
24,NC(=O)[C@H](CC1CCCCC1)NC(=O)[C@H]1CN(C(=O)C2CCNCC2)CCN1C(=O)C1CCNCC1,inconclusive: 14%

row,Compound,inhibition
1,O=C(Nc1ccc2oc(-c3cc(Cl)ccc3Cl)nc2c1)c1ccc([N+](=O)[O-])o1,inconclusive: 28%
2,CCOc1ccc(C(=O)N2CCN=C2SC)cc1,inconclusive: 12%
3,O=C(c1cc(-n2cccc2)ccc1O)N1CCC2(CC1)C(=O)Nc1ccccc12,inconclusive: 13%
4,Cc1nc2c(c(NC(C)Cc3ccsc3)n1)CNC2 (centres undefined),inactive
5,Nc1nonc1-n1nnc(C(=O)N2CCOCC2)c1-c1ccccc1,inconclusive: 15%
6,COc1ccc(NC(=O)CCC2CCCN(c3cc(C)nc(N)n3)C2)c(C)c1 (centres undefined),inconclusive: 16%
7,COc1ccc(C2(CCNC(=O)c3cc(OC)c(OC)c(OC)c3)CCCC2)cc1OC,inconclusive: 12%
8,CCCCOc1cc(CC2CNC(=O)N2)ccc1OC (centres undefined),inconclusive: 15%
9,Cc1cc(/C=C2\NC(=O)NC2=O)c(C)n1-c1ccc(Cl)c(Cl)c1,inconclusive: 13%
10,CCOC(=O)C1(Cc2ccccc2)CCCN(Cc2nc[nH]c2C)C1 (centres undefined),inconclusive: 19%
11,CC1CCCCC1NC(=O)C1CCCN(S(=O)(=O)c2cnc[nH]2)C1 (centres undefined),inactive
12,O=C(/C=C/c1ccco1)N(CC1CCN(C2Cc3ccccc3C2)CC1)CC1CCCO1 (centres undefined),inconclusive: 19%
13,O=C(NCCc1ccccc1)C1CCC(CNS(=O)(=O)c2cccc3nsnc23)CC1 (centres undefined),inconclusive: 12%
14,CC1(C)CC(=O)C2=C(C1)Nc1nc(SCc3ccccc3F)nn1C2c1cccc(O)c1 (centres undefined),inconclusive: 16%
15,CN(C)CC(=O)Nc1ccc(C(=O)Nc2cnc3n2CCCC3)cc1,inconclusive: 28%
16,Fc1ccc(Cc2cn3cc(-c4ccc(Br)cc4)nc3s2)cc1,inactive
17,COc1ccc(C(=O)N2CCN=C2SCc2cc(C)ccc2C)cc1OC,inconclusive: 10%
18,OC(COCc1ccc(Cl)cc1)CN1CCOCC1 (centres undefined),inconclusive: 17%
19,CCC1=C(O)c2ccccc2C(=O)C1=O,inconclusive: 14%
20,Cc1nn(Cc2ccc(F)cc2)c(C)c1NC(=O)c1cc(-c2ccc(F)cc2)on1,inactive
21,CC(C)Cn1c(=O)n(C)c(=O)c2[nH]cnc21,inactive
22,O=C(c1csc(S(=O)(=O)NCc2ccccc2)c1)N1CCCC1,inconclusive: 12%
23,O=S(=O)(NCCOC12CC3CC(CC(C3)C1)C2)c1cc(Cl)ccc1Cl,inactive
24,CC(NC(=O)c1cc(-c2ccco2)on1)c1ccccc1 (centres undefined),inactive

# Reformatted: entries from further up
row | Compound | inhibition
21 | OC[C@@H]1O[C@H](CNC2CCOCC2)[C@H](N2CCOCC2)[C@@H]1O | inconclusive: 16%
22 | COc1cccc(CN2CCSCC2)c1OC | inconclusive: 11%
23 | Cn1c(=O)oc2cc(S(=O)(=O)Nc3cccc(F)c3)ccc21 | inactive
1 | O=C(Nc1ccc2oc(-c3cc(Cl)ccc3Cl)nc2c1)c1ccc([N+](=O)[O-])o1 | inconclusive: 28%
2 | CCOc1ccc(C(=O)N2CCN=C2SC)cc1 | inconclusive: 12%
3 | O=C(c1cc(-n2cccc2)ccc1O)N1CCC2(CC1)C(=O)Nc1ccccc12 | inconclusive: 13%
4 | Cc1nc2c(c(NC(C)Cc3ccsc3)n1)CNC2 (centres undefined) | inactive
5 | Nc1nonc1-n1nnc(C(=O)N2CCOCC2)c1-c1ccccc1 | inconclusive: 15%
6 | COc1ccc(NC(=O)CCC2CCCN(c3cc(C)nc(N)n3)C2)c(C)c1 (centres undefined) | inconclusive: 16%
7 | COc1ccc(C2(CCNC(=O)c3cc(OC)c(OC)c(OC)c3)CCCC2)cc1OC | inconclusive: 12%
8 | CCCCOc1cc(CC2CNC(=O)N2)ccc1OC (centres undefined) | inconclusive: 15%
9 | Cc1cc(/C=C2\NC(=O)NC2=O)c(C)n1-c1ccc(Cl)c(Cl)c1 | inconclusive: 13%
10 | CCOC(=O)C1(Cc2ccccc2)CCCN(Cc2nc[nH]c2C)C1 (centres undefined) | inconclusive: 19%
11 | CC1CCCCC1NC(=O)C1CCCN(S(=O)(=O)c2cnc[nH]2)C1 (centres undefined) | inactive
12 | O=C(/C=C/c1ccco1)N(CC1CCN(C2Cc3ccccc3C2)CC1)CC1CCCO1 (centres undefined) | inconclusive: 19%
13 | O=C(NCCc1ccccc1)C1CCC(CNS(=O)(=O)c2cccc3nsnc23)CC1 (centres undefined) | inconclusive: 12%
14 | CC1(C)CC(=O)C2=C(C1)Nc1nc(SCc3ccccc3F)nn1C2c1cccc(O)c1 (centres undefined) | inconclusive: 16%
15 | CN(C)CC(=O)Nc1ccc(C(=O)Nc2cnc3n2CCCC3)cc1 | inconclusive: 28%
16 | Fc1ccc(Cc2cn3cc(-c4ccc(Br)cc4)nc3s2)cc1 | inactive
18 | OC(COCc1ccc(Cl)cc1)CN1CCOCC1 (centres undefined) | inconclusive: 17%
19 | CCC1=C(O)c2ccccc2C(=O)C1=O | inconclusive: 14%
20 | Cc1nn(Cc2ccc(F)cc2)c(C)c1NC(=O)c1cc(-c2ccc(F)cc2)on1 | inactive
21 | CC(C)Cn1c(=O)n(C)c(=O)c2[nH]cnc21 | inactive
22 | O=C(c1csc(S(=O)(=O)NCc2ccccc2)c1)N1CCCC1 | inconclusive: 12%
23 | O=S(=O)(NCCOC12CC3CC(CC(C3)C1)C2)c1cc(Cl)ccc1Cl | inactive
24 | CC(NC(=O)c1cc(-c2ccco2)on1)c1ccccc1 (centres undefined) | inactive

# The list continues:

row,Compound,inhibition
1,CCCn1ncc(C(=O)N(C)C(C)c2ccon2)c1C (centres undefined),inconclusive: 12%
2,COc1ccc(C2=C(Nc3ccc(C(N)=O)cc3)c3ccccc3C2=O)cc1,inconclusive: 19%
3,CCOc1cc2oc(=O)cc(-c3ccccc3)c2cc1Cl,inconclusive: 15%
4,O=C(CC1SC(=Nc2ccccc2)N(c2ccccc2)C1=O)Nc1ccc([N+](=O)[O-])cc1 (centres undefined),inconclusive: 13%
5,Cc1cc(C)c(OCC(O)CN2CCN(Cc3ccc4c(c3)OCO4)CC2)c(C)c1 (centres undefined),inconclusive: 17%
6,CC(C)(O)C#Cc1cccc(-c2n[nH]c(CCc3ccccc3)n2)c1,inconclusive: 18%
7,OCC1CCCCN1CCn1cnnc1 (centres undefined),inconclusive: 17%
8,COc1ccc(-c2noc([C@@H]3Cc4nc[nH]c4CN3C(=O)c3ccc(-c4ccccc4)cc3)n2)cc1,inconclusive: 15%
9,Cn1c2ccccc2n2c(SCC(=O)O)nnc12,inconclusive: 20%
10,CCN(CC)C1=Nc2cc(C(=O)O)ccc2Sc2ccccc21,inactive
11,Cc1ccc(NC(=O)c2cnn3c(C(F)(F)F)cc(-c4ccco4)nc23)c(C)c1,inactive
12,O=C(c1cnc(Nc2ccccc2)nc1)N1CCCC(CCc2ccc(F)cc2)C1 (centres undefined),inactive
13,O=C(NCc1ccncc1)Nc1ccccc1Cl,inconclusive: 11%
14,CC1(C)CC(NCc2cccc([N+](=O)[O-])c2)CC(C)(C)N1,inconclusive: 10%
15,CC(=O)c1ccc2c(c1)OCCOCCOc1ccccc1OCCOCCO2,inconclusive: 10%
16,CC(C)c1ccc(NC(=O)N[C@H]2CO[C@H]3[C@@H]2OC[C@H]3O)cc1,inconclusive: 20%
17,CCc1nc(SCC(=O)c2ccc(OC)cc2)n[nH]1,inactive
18,COCCn1c(CNS(=O)(=O)c2c(C)cc(C)cc2C)nc2cccnc21,inconclusive: 10%
19,CCC(C)C1N=C2c3ccccc3N=C(SCC(=O)NCc3ccc(C)cc3)N2C1=O (centres undefined),inconclusive: 10%
20,CC(=O)Nc1ccc(S(=O)(=O)NC(C)=O)cc1,inconclusive: 10%
21,COc1ccc(C(=O)Nc2ccc(C)c(Cl)c2)cc1[N+](=O)[O-],inconclusive: 11%
22,CS(=O)(=O)N(Cc1ccccc1Cl)c1ccc(C(=O)Nc2ccccc2F)cc1,inactive
